From paper doi:10.1101/2022.11.05.515280
Results are given in words; binding and its absence hold for the method and conditions named. For some of these results: Binding calls can cover weak binding; strength is not graded here.

B1: full length human TCTP (Translationally Controlled Tumour Protein) (protein, UniProt P13693 1-172)
chain: MIIYRDLISHDEMFSDIYKIREIADGLCLEVEGKMVSRTEGNIDDSLIGGNASAEGPEGEGTESTVITGVDIVMNHHLQETSFTKEAYKKYIKDYMKSIKGKLEEQRPERVKPFMTGAAEQIKHILANFKNYQFFIGENMNPDGMVALLDYREDGVTPYMIFFKDGLEMEKC

Tests used:
[1] = target: T1, full length human TCTP (Translationally Controlled Tumour Protein) (human) (UniProt P13693); assay: NMR titration
T1 sequence: B1 chain

[2] = target: human Mcl-1 ΔPESTΔTM (human); assay: NMR titration
[3] = target: human Mcl-1 ΔPESTΔTM (human); assay: NMR titration; remark: listed apart in the source
[4] = target: human Mcl-1 ΔPESTΔTM (human); assay: condition: only in an equimolar mix with TCTPBH3D16I and MuleBH3

Row | Molecule | binding [1] | binding [2] | binding [3] | binding [4]
1 | human Mcl-1 ΔPESTΔTM (domain or fragment) | binds weakly |  |  | 
2 | B1 |  | binds weakly | binds | 
3 | DEMFSDIYKIREIADGLCLEVE (peptide, UniProt P13693 11-32) [TCTP BH3-like peptide (TCTPBH3)] |  | binds weakly | binds weakly | no binding
4 | DEMFSIIYKIREIADGLCLEVE (peptide, UniProt P13693 11-32) [TCTP BH3-like peptide D16I mutant (TCTP_(BH3D16I))] |  |  | binds | 
